The other results are listed elsewhere or left out. The main result of the screen is listed elsewhere. These columns were measured beside it and carry no call. Most of these compounds were active or inconclusive in the main read-out, so they are no random draw. Potencies come from curve fits of mixed quality, noted in brackets.
Test: IkB Signaling
Conditions: ABC-DLBCL IkBa-CBG/CBR dual luciferase ratio (green luciferase fused to IkBa over red control in OCI-Ly3 lymphoma cells), 4 h
Procedure, shortened: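 Luminescence ratio of IκBα-fused green versus native red beetle luciferase in OCI-Ly3 cells, 4 h post-doxycycline with compound; red signal alone, scaled from basal (0%) to zero light (-100%), flagged nonspecific or cytotoxic effects.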

[1] = measured here: control luc red channel unless noted

With O=S(=O)(Nc1nc2n(n1)C(c1ccc(F)cc1)C=C(c1ccccc1)N2)c1ccccc1 (stereo not given) the AC50 [1] was 39.8 µM [falling, single point].
With COC(=O)c1ccc2c(=O)n(CCCCCC(=O)NCc3ccc(Cl)cc3)c(=O)[nH]c2c1 the AC50 [1] was 3.98 µM [rising, partial curve, poor fit].
For Cc1ccc2ncc(C(=O)Nc3ccc(F)cc3F)c(=O)n2c1, the AC50 [1] was 2 µM [rising, partial curve].
In the case of CCc1ccc(CNC(=O)c2ccc(NC(=O)N3CC(C)Sc4ccccc43)cc2)cc1 (stereo not given), the AC50 [1] is reported as 10 µM [falling, partial curve].
For CC(C)(C)c1ccc(C(=O)NCC(c2cccs2)S(=O)(=O)c2ccccc2)cc1 (stereo not given), the AC50 [1] was 2.51 µM [rising, partial curve].
In the case of Cc1nn2c(-c3cccc(NC(=O)c4ccccc4)c3)nnc2c2ccccc12, the AC50 [1] is reported as 39.8 µM [falling, single point].
In the case of COc1ccc(CNC(=O)c2ccc(N3CCCC3)c(NC(=O)NCc3ccc(C)cc3)c2)cc1, the AC50 [1] is reported as 10 µM [falling, partial curve].
For O=C(Cc1ccccc1)N(Cc1cccnc1)c1nc2c(F)cc(F)cc2s1, the AC50 [1] was 3.16 µM [falling, partial curve].
With Cc1cccc(N2CCN(C(=O)CCc3nnc4n(CC(C)C)c(=O)c5ccccc5n34)CC2)c1C the AC50 [1] was 12.6 µM [falling, partial curve].
With CCCn1c(NCc2cc(C)ccc2O)nc2ccccc21 the AC50 [1] was 20 µM [falling, partial curve].
With CC(C)c1ccc(OCC(=O)NC(Cc2c[nH]c3ccccc23)C(=O)O)cc1 (stereo not given) the AC50 [1] was 39.8 µM [falling, single point].
With CCc1ccccc1NC(=O)CN(Cc1ccccc1)S(=O)(=O)c1ccc(Br)cc1 the AC50 [1] was 7.94 µM [falling, partial curve].
For COc1ccc(CCNC(=O)c2ccc3c(c2)N(Cc2c(F)cccc2Cl)C(=O)CS3)cc1OC, the AC50 [1] was 39.8 µM [falling, single point].
With CCc1ccccc1N(CC)C(=O)c1c(C)oc2ncnc(N3CCOCC3)c12 the AC50 [1] was 20 µM [falling, partial curve].
For COc1ccc(NC(=O)Nc2nnc(C)s2)cc1, the AC50 [1] was 0.501 µM [rising, single point].
For COc1ccc(NC(=O)CSc2nnc(-c3ccccc3Cl)n2Cc2ccco2)c(OC)c1, the AC50 [1] was 12.6 µM [falling, partial curve].
In the case of Cc1cccc(CN2CCC(CNC(=O)c3c(C)oc4ncnc(N5CCCCC5)c34)CC2)c1, the AC50 [1] is reported as 0.00631 µM [rising, full curve].
In the case of CC(Sc1nc(=O)cc(N)n1CCc1ccccc1)C(=O)Nc1ccc(Cl)cc1 (stereo not given), the AC50 [1] is reported as 0.0251 µM [falling, full curve].
In the case of CCN(C(=O)C1CCC(CNS(=O)(=O)c2cccc3nsnc23)CC1)c1ccc(C)c(C)c1 (stereo not given), the AC50 [1] is reported as 39.8 µM [falling, single point].
With CC(C)OCCCNC(=O)c1ccc2c(c1)NC(=O)c1ccccc1S2 the AC50 [1] was 39.8 µM [falling, single point].
In the case of CCn1c(=O)sc2cc(NS(=O)(=O)c3ccc(F)c(C)c3)ccc21, the AC50 [1] is reported as 20 µM [falling, partial curve].
With Cc1ccc(CSc2cn(CC(=O)N3CCCC3)c3ccccc23)cc1 the AC50 [1] was 10 µM [falling, partial curve].
In the case of O=C(CCS(=O)(=O)c1cc(Br)cc2c1N(C(=O)C1CC1)CC2)NCc1ccc(Cl)cc1, the AC50 [1] is reported as 12.6 µM [falling, partial curve].
In the case of O=C(Nc1cc(-c2nc3ccccc3o2)ccc1Cl)c1ccc(N2CCCCC2)c([N+](=O)[O-])c1, the AC50 [1] is reported as 15.8 µM [rising, partial curve, poor fit].
With COc1ccc(C2c3c(n(C)c4ccccc34)C(=O)N2CC(=O)Nc2ccc(C)c(Cl)c2)cc1 (stereo not given) the AC50 [1] was 10 µM [falling, partial curve].
For Cc1ccc(NC(=O)Cn2cc(S(=O)(=O)c3ccc(C)cc3)c(=O)c3cc4c(cc32)OCO4)cc1, the AC50 [1] was 1.58 µM [falling, single point].
With CC(=O)Nc1cc(OC(C)=O)c2nonc2c1OC(C)=O the AC50 [1] was 20 µM [falling, partial curve].
In the case of CCc1ccc(C(=O)c2cn(CC(=O)Nc3cccc(OC)c3)c3ccc(OC)cc3c2=O)cc1, the AC50 [1] is reported as 31.6 µM [falling, single point].
With COc1ccccc1N1CCN(c2ncnc3c2cnn3-c2cc(Cl)ccc2C)CC1 the AC50 [1] was 5.01 µM [falling, partial curve].
With O=C(NCCc1ccccc1)c1cnc2sc(N3CCCCCC3)nn2c1=O the AC50 [1] was 3.16 µM [rising, partial curve].
For O=C(c1cc2ccccc2oc1=O)N1CCN(c2ccc(Cl)cc2)CC1, the AC50 [1] was 39.8 µM [falling, single point].
For CCOC(=O)c1c(COc2ccccc2)oc2ccc(O)cc12, the AC50 [1] was 20 µM [falling, partial curve].
In the case of Cc1ccc(C(=O)N2c3ccc(C)cc3C(C)(c3ccccc3)CC2(C)C)cc1 (stereo not given), the AC50 [1] is reported as 3.16 µM [falling, full curve].
With CCOC(=O)c1ccc(N2C(=O)c3[nH]nc(-c4ccc(C)cc4)c3C2c2cccc(F)c2)cc1 (stereo not given) the AC50 [1] was 6.31 µM [falling, partial curve].
With COc1ccc(OCc2ccc(-c3nc4ccccc4c(=O)n3N)o2)cc1 the AC50 [1] was 12.6 µM [falling, partial curve].
For Cc1c(Cl)cccc1NC(=O)c1cccc(NC(=O)N2CCSc3ncccc32)c1, the AC50 [1] was 15.8 µM [falling, partial curve].
In the case of Cc1ccc(CNC(=O)c2ccc3c(c2)nc(C)n3-c2cccc(F)c2)cc1, the AC50 [1] is reported as 39.8 µM [falling, single point].
In the case of CCOc1ccc(NC(=O)CSC2=Nc3ccccc3C3=NC(CCC(=O)NCc4ccccc4)C(=O)N23)cc1 (stereo not given), the AC50 (measured here: IkB-luc green channel) is reported as 39.8 µM [rising, single point] and the AC50 (measured here: control luc red channel) is reported as 39.8 µM [rising, single point].
In the case of COc1ccc2ccccc2c1CN1CCN(C(=O)c2ccccc2)CC1, the AC50 [1] is reported as 15.8 µM [falling, partial curve].

From PubChem BioAssay AID445 (National Center for Advancing Translational Sciences (NCATS), 2006)
